Residue numbers refer to the chain shown, from its start. Where two headings read alike, the source gives them in different places. No constants are given. Whether binding was seen depends on the method and setting. Binding seen in cells or lysates may run through a third protein. Some results given as binding are weak or reduced against the parent protein; the word gives no strength. Where a sequence is shown, tags or fusion partners need not be part of it.
T1: GST-Gal80 aa 81-145 V121A (S. cerevisiae) (UniProt P04387)
T1 sequence: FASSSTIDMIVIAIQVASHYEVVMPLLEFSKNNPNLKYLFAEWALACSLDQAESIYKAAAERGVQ

Protein sequences, listed by entry. Tags and fused reporters are not part of them.
UniProt P16649: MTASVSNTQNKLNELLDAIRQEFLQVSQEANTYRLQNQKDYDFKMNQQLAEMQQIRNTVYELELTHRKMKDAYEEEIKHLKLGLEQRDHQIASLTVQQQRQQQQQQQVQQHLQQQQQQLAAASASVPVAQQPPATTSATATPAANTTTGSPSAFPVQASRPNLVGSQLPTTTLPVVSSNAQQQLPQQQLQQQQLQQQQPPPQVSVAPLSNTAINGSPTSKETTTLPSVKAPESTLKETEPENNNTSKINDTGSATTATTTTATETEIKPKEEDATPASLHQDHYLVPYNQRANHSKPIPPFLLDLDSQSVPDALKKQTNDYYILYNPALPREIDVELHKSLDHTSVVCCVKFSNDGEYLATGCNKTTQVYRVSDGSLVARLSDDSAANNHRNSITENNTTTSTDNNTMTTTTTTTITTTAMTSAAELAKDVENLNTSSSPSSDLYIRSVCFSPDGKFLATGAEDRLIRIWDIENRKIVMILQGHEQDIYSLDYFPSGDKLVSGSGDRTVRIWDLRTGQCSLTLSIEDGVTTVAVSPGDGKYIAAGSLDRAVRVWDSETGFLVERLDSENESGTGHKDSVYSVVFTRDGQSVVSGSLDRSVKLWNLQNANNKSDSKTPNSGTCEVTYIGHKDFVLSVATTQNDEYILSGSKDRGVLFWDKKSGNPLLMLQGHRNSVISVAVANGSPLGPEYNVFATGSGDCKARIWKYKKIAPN

T2: GST-Gal80 aa 81-145 F120A (S. cerevisiae) (UniProt P04387)
T2 sequence: T1 sequence with F40A, A41V

T3: GST-Gal80 aa 146-290 (S. cerevisiae) (UniProt P04387)
T3 sequence: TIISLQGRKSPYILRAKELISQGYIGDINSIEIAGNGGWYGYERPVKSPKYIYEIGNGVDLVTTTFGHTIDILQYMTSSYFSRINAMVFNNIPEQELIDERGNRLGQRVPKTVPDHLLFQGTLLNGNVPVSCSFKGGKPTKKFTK

T4: GST-Gal80 aa 81-145 W123A (S. cerevisiae) (UniProt P04387)
T4 sequence: T1 sequence with A41V, W43A

T5: GST-Gal80 aa 81-145 K117A (S. cerevisiae) (UniProt P04387)
T5 sequence: T1 sequence with K37A, A41V

T6: GST-Gal80 aa 81-145 LFV-AAA (pos. 119-121) (S. cerevisiae) (UniProt P04387)
T6 sequence: T1 sequence with L39A, F40A

T7: GST-Gal80 aa 81-145 (repression-mediating domain, wild-type) (S. cerevisiae) (UniProt P04387)
T7 sequence: T1 sequence with A41V

T8: GST-Gal80 aa 81-145 L125A (S. cerevisiae) (UniProt P04387)
T8 sequence: T1 sequence with A41V, L45A

T9: GST-Gal80 aa 291-435 (S. cerevisiae) (UniProt P04387)
T9 sequence: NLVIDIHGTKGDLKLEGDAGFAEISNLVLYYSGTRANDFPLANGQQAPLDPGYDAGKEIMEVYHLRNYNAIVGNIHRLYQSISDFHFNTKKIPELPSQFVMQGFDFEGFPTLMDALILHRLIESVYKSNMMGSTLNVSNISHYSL

T10: GST-Gal80 aa 146-220 (S. cerevisiae) (UniProt P04387)
T10 sequence: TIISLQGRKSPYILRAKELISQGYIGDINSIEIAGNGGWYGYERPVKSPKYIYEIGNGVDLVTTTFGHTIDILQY

B1: HA3-Cyc8 (aa 1-398, TPR-containing domain) (domain or fragment, UniProt P14922 1-398)
chain: MNPGGEQTIMEQPAQQQQQQQQQQQQQQQQAAVPQQPLDPLTQSTAETWLSIASLAETLGDGDRAAMAYDATLQFNPSSAKALTSLAHLYRSRDMFQRAAELYERALLVNPELSDVWATLGHCYLMLDDLQRAYNAYQQALYHLSNPNVPKLWHGIGILYDRYGSLDYAEEAFAKVLELDPHFEKANEIYFRLGIIYKHQGKWSQALECFRYILPQPPAPLQEWDIWFQLGSVLESMGEWQGAKEAYEHVLAQNQHHAKVLQQLGCLYGMSNVQFYDPQKALDYLLKSLEADPSDATTWYHLGRVHMIRTDYTAAYDAFQQAVNRDSRNPIFWCSIGVLYYQISQYRDALDAYTRAIRLNPYISEVWYDLGTLYETCNNQLSDALDAYKQAARLDVNN

Tests used:
Experiment in all cases: pull-down; GST-Gal80 fusions immobilised on GSH sepharose, incubated with bacterial (E. coli) total protein extracts containing HA3-Cyc8 or HA3-Tup1; washing of intermediary stringency; elution with 10 mM free GSH; SDS-PAGE and blot with anti-HA-peroxidase conjugate; only the target purified
[1] = target: T1, GST-Gal80 aa 81-145 V121A (S. cerevisiae)
[2] = target: T2, GST-Gal80 aa 81-145 F120A (S. cerevisiae)
[3] = target: T3, GST-Gal80 aa 146-290 (S. cerevisiae)
[4] = target: T4, GST-Gal80 aa 81-145 W123A (S. cerevisiae)
[5] = target: T5, GST-Gal80 aa 81-145 K117A (S. cerevisiae)
[6] = target: T6, GST-Gal80 aa 81-145 LFV-AAA (pos. 119-121) (S. cerevisiae)
[7] = target: T7, GST-Gal80 aa 81-145 (repression-mediating domain, wild-type) (S. cerevisiae)
[8] = target: T8, GST-Gal80 aa 81-145 L125A (S. cerevisiae)
[9] = target: T9, GST-Gal80 aa 291-435 (S. cerevisiae)
[10] = target: T10, GST-Gal80 aa 146-220 (S. cerevisiae)
[11] = target: T7, GST-Gal80 aa 81-145 (repression-mediating domain, wild-type) (S. cerevisiae); remark: listed apart in the source

Row | Molecule | binding [1] | binding [2] | binding [3] | binding [4] | binding [5] | binding [6] | binding [7] | binding [8] | binding [9] | binding [10] | binding [11]
1 | HA3-Tup1 (full length) (from UniProt P16649 1-713) | binds | binds | binds | binds | binds | binds | binds |  |  |  | 
2 | B1 |  |  |  |  |  |  |  | binds | no binding | binds | binds

— PMC8801411
